No constants are given. Whether binding was seen depends on the method and setting. In cells and extracts the contact can be indirect. Some binding calls cover weakened binding; strength is not graded here.
Target: AT-rich interaction domain protein 1A (ARID1A) (human (endogenous in the paper's human cell lines; the line used for the IP is not stated)), O14497
Test: co-IP; IP with anti-ARID1A (anti-IgG as control) from benzonase-treated nuclear lysate, protein A/G magnetic beads, beads boiled in Laemmli buffer and loaded on an SDS gel; cells without and with DNA damage
Details: remark: other sources report otherwise

B1: SCC1/RAD21, O60216 1-631 (protein)
chain: MFYAHFVLSKRGPLAKIWLAAHWDKKLTKAHVFECNLESSVESIISPKVKMALRTSGHLLLGVVRIYHRKAKYLLADCNEAFIKIKMAFRPGVVDLPEENREAAYNAITLPEEFHDFDQPLPDLDDIDVAQQFSLNQSRVEEITMREEVGNISILQENDFGDFGMDDREIMREGSAFEDDDMLVSTTTSNLLLESEQSTSNLNEKINHLEYEDQYKDDNFGEGNDGGILDDKLISNNDGGIFDDPPALSEAGVMLPEQPAHDDMDEDDNVSMGGPDSPDSVDPVEPMPTMTDQTTLVPNEEEAFALEPIDITVKETKAKRKRKLIVDSVKELDSKTIRAQLSDYSDIVTTLDLAPPTKKLMMWKETGGVEKLFSLPAQPLWNNRLLKLFTRCLTPLVPEDLRKRRKGGEADNLDEFLKEFENPEVPREDQQQQHQQRDVIDEPIIEEPSRLQESVMEASRTNIDESAMPPPPPQGVKRKAGQIDPEPVMPPQQVEQMEIPPVELPPEEPPNICQLIPELELLPEKEKEKEKEKEDDEEEEDEDASGGDQDQEERRWNKRTQQMLHGLQRALAKTGAESISLLELCRNTNRKQAAAKFYSFLVLKKQQAIELTQEEPYSDIIATPGPRFHII
With B1 the binding was “binds”.

Reference: paper PMC11162808
